Experimental data: the supplement of paper PMC7661543
± gives the standard deviation of the averaged measurements. The effect of the compound repeats well; differences between the knockouts mostly do not.

How the values were obtained:
BT-20 = assay: relative cell number vs DMSO control (72 h) (% of DMSO); higher = less growth inhibition (more cells)
Description: (§1)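 QMAP-Seq: a pool of 5 breast cancer cell lines (ZR-75-1, SKBR3, HCC-38, MDA-MB-231, BT-20), each carrying 12 doxycycline-inducible Cas9 sgRNA perturbations (11 knockouts plus non-targeting sgNT), was treated with compounds for 72 h at four 10-fold doses (10 nM-10 uM or 1 nM-1 uM range). Barcodes were amplified and sequenced, and cell number was interpolated from 293T spike-in standard curves. The result is expressed as % of the median of DMSO wells. Two biological replicates.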

HCC-38 = assay: as above
Description: as §1

O=[N+]([O-])c1ccc(O)c2ncccc12 [Nitroxoline]
relative cell number
Conditions	BT-20	HCC-38
sgRNA knockout: sgATF3, 10 nM	87.3 ± 15	85.39 ± 0.26
sgRNA knockout: sgATF3, 100 nM	84.4 ± 4.4	86.34 ± 0.53
sgRNA knockout: sgATF3, 1000 nM	93.1 ± 12	116 ± 21
sgRNA knockout: sgATF3, 10000 nM	46.2 ± 3.9	51.5 ± 14
sgRNA knockout: sgATF4, 10 nM	90 ± 17	92.9 ± 1.7
sgRNA knockout: sgATF4, 100 nM	86.3 ± 4.5	80.6 ± 9.7
sgRNA knockout: sgATF4, 1000 nM	109 ± 19	103 ± 6.8
sgRNA knockout: sgATF4, 10000 nM	56.8 ± 4.2	48.2 ± 8.7
sgRNA knockout: sgATF6, 10 nM	83 ± 5.2	83.3 ± 9
sgRNA knockout: sgATF6, 100 nM	85.5 ± 17	100 ± 13
sgRNA knockout: sgATF6, 1000 nM	107 ± 5.5	114 ± 4.4
sgRNA knockout: sgATF6, 10000 nM	55.5 ± 7.5	59 ± 4.8
sgRNA knockout: sgATG7, 10 nM	86.3 ± 5.5	89.6 ± 1.5
sgRNA knockout: sgATG7, 100 nM	92.7 ± 14	85.1 ± 5.5
sgRNA knockout: sgATG7, 1000 nM	108 ± 29	99.1 ± 7.2
sgRNA knockout: sgATG7, 10000 nM	47.5 ± 13	49 ± 6.2
sgRNA knockout: sgERN1, 10 nM	84 ± 7.9	90.6 ± 2.1
sgRNA knockout: sgERN1, 100 nM	95.7 ± 16	94.1 ± 1.4
sgRNA knockout: sgERN1, 1000 nM	110 ± 32	94.25 ± 0.25
sgRNA knockout: sgERN1, 10000 nM	47.1 ± 6.7	51.9 ± 8.9
sgRNA knockout: sgHSF1, 10 nM	91.9 ± 5.1	86.1 ± 5.9
sgRNA knockout: sgHSF1, 100 nM	97.7 ± 19	100 ± 25
sgRNA knockout: sgHSF1, 1000 nM	91.1 ± 2.4	92.5 ± 29
sgRNA knockout: sgHSF1, 10000 nM	53.7 ± 6.3	56.5 ± 6.2
sgRNA knockout: sgHSF2, 10 nM	71.4 ± 4.1	84.59 ± 0.57
sgRNA knockout: sgHSF2, 100 nM	88.5 ± 33	88.7 ± 7.2
sgRNA knockout: sgHSF2, 1000 nM	119 ± 30	105 ± 7.7
sgRNA knockout: sgHSF2, 10000 nM	50 ± 5.8	51.2 ± 14
sgRNA knockout: sgKEAP1, 10 nM	93.4 ± 1.2	88.1 ± 14
sgRNA knockout: sgKEAP1, 100 nM	93.3 ± 3.5	104 ± 2.4
sgRNA knockout: sgKEAP1, 1000 nM	97.6 ± 7.6	103 ± 8
sgRNA knockout: sgKEAP1, 10000 nM	47.22 ± 0.18	59.96 ± 0.44
sgRNA knockout: sgNFE2L2, 10 nM	89.8 ± 3.7	87.6 ± 5.5
sgRNA knockout: sgNFE2L2, 100 nM	89.4 ± 29	81.8 ± 13
sgRNA knockout: sgNFE2L2, 1000 nM	84.3 ± 21	112 ± 16
sgRNA knockout: sgNFE2L2, 10000 nM	47.1 ± 13	45.5 ± 11
sgRNA knockout: sgSLC35F2, 10 nM	93.4 ± 17	91 ± 7.6
sgRNA knockout: sgSLC35F2, 100 nM	88.9 ± 22	89.9 ± 10
sgRNA knockout: sgSLC35F2, 1000 nM	105 ± 3.5	108 ± 16
sgRNA knockout: sgSLC35F2, 10000 nM	52.7 ± 8.6	47.7 ± 7.7
sgRNA knockout: sgXBP1, 10 nM	94.1 ± 11	88.6 ± 2.6
sgRNA knockout: sgXBP1, 100 nM	93.8 ± 12	80.5 ± 3.1
sgRNA knockout: sgXBP1, 1000 nM	112 ± 5.2	110 ± 16
sgRNA knockout: sgXBP1, 10000 nM	53.7 ± 1.1	49.9 ± 9.1
